# Test results taken from paper PMC10163288.
# The list shows a part of the results.
# B1: il10ra_site1_sap_23_mot_HHH_b1_04771_000000013_0001_40_56_H_._HHH_b1_02811_0001_0000100005_0000001_0_0001_af2pred_0001 (protein)
# chain: SSSSDEDRKAVELTLRFMRFLAKHGDREAVEYFFRAAKELIERAGDEELEEELEELYEELQSSSS
# B2: il10ra_site1_normal_mot_HHH_b1_04771_000000013_0001_40_56_H_._HHH_b2_07574_af2_0001_0000400014_0000001_0 (protein)
# chain: SSSSSSTKAVELSLEAFRAALRGNPEEARELLEEAEQIAEEEGDERTLRIIRDLLKALSSSSSSS
# B3: il10ra_site1_sap_19_mot_HHH_b1_08697_af2_000000298_0001_1_18_H_._HHH_b2_01157_0001_0000100005_0000001_0_0001_af2pred_0001 (protein)
# chain: SSSSNEEVKQLVELIREAAELHHKGNREEAKEVLEEAKELAEELGNPLAELLIEFLERQNSSSSS
# B4: il10ra_site1_sap_18_mot_HHH_b2_07144_000000289_0001_1_18_H_._HHH_b1_08370_0001_0000200016_0000001_0_0001 (protein)
# chain: SSSSDLAHRVYKLSRKALELRARGDPEEAERLLEEALELLEENNNRAQLRVVRMILERLGSSSSS
# B5: il10ra_site1_normal_mot_HHH_b1_05056_000000217_0001_1_20_H_._HHH_b2_07116_0001_0000300030_0000001_0 (protein)
# chain: SSSSSDEEIEEEVEELLEQARHIEDPKEVAELLLEAAQLAFELQDPELLRLVWRVVQELASSSSS
# B6: il10ra_site1_normal_mot_HHH_b1_01821_000000158_0001_23_39_H_._HHH_b2_00894_af2_0001_0000100002_0000001_0 (protein)
# chain: SSSSDEAEEEARELLERLEEALEEGDQEKAAQIAQEAVRAAFRAGDPELLQAIWELFRRFISSSS
# B7: il10ra_site1_sap_15_mot_HHH_b2_03328_af2_000000127_0001_1_19_H_._891b8491a18eb46c9ad5c1702b87f9cc_0001_0001_0000100002_0000002_0_0001 (protein)
# chain: SSSSDERFELVRKVIEEAIELWEQGNEEEARELIEEALEELRELGDWVAVKALEHLLRVLSSSSS
# B8: il10ra_site1_sap_11_mot_HHH_b2_02267_000000141_0001_1_20_H_._HHH_b1_06352_af2_0001_0000500026_0000001_0_0001 (protein)
# chain: SSSSTDEAFERVKELVKRAVELARNGNPEEAEKLLEEARELAEESNTMALRWAVEHLLRLLSSSS
# B9: il10ra_site1_normal_mot_HHH_b2_06311_000000217_0001_1_16_H_._HHH_b2_06308_0001_0000300048_0000001_0 (protein)
# chain: SSSSDEELERYVRQALHFIKALAKDNEEAARALARFLLQTVEEQGDEELFEIVEKLLEELSSSSS
# B10: il10ra_site1_sap_23_mot_ems_3hM_250_000000141_0001_1_18_H_._230fcc1677eb0c512f32732c1a7e1c83_0001_af2_0001_0000900015_0000001_0_0001 (protein)
# chain: SSSSDDYEEVKRLAEEASKLLRNGDPEEAEELLEELEEKLREKGNMDALFAVEHMLRVVRNSSSS
# B11: il10ra_site1_normal_mot_b26a303360aa2756ef5b79665ce52f45_0001_000000179_0001_1_11_H_._HHH_b2_04602_0001_0000200015_0000001_0 (protein)
# chain: SSSSSESYEIARRAIEEALELFRRGNPEKAEEVLEEAERLVEELNDEVTLFSLRHALRDLSSSSS
# B12: il10ra_site1_normal_mot_HHH_b1_02997_000000220_0001_39_52_H_._HHH_b1_01256_0001_0000100003_0000001_0_af2pred_dldesign_0_af2pred (protein)
# chain: SSSSSDQEKIDKIIDLIREALELEDPEEARRVLEEAIKLAKEANDPILEYNAEYLLRQVESSSSS
# B13: il10ra_site1_sap_25_mot_HHH_b2_02736_000000092_0001_22_38_H_._HHH_b1_01266_0001_0000100003_0000002_0_0001_af2pred_0001 (protein)
# chain: SSSSSSTDAREVKRLLEEALHIDDPEEREELLEEALRLAEEGNDLTAEVIVRFALKRLSSSSSSS
# B14: il10ra_site1_sap_21_mot_HHH_b1_03314_af2_000000278_0001_42_55_H_._HHH_b2_06165_0001_0000200009_0000001_0_0001 (protein)
# chain: SSSSDSAEIAVKVLEESLRRAKELGDEEYARNAARFLLHIARWAGDEEVQEFAEEVLEELSSSSS
# B15: il10ra_site1_sap_25_mot_HHH_b1_08446_000000041_0001_1_19_H_._HHH_b1_00288_af2_0001_0000100004_0000002_0_0001 (protein)
# chain: SSSSDEAYEVSRRFIEEAAQAAREGNPEEAERLLEEAIEEVKELGNRVAVMVLEWALELYESSSS
# B16: il10ra_site1_sap_14_mot_HHH_b2_07442_000000239_0001_40_54_H_._HHH_b2_03913_0001_0000100003_0000002_0_0001 (protein)
# chain: SSSSSDDERAEEQAKAAFRFARSADEETRRFVEWSLEFLAEDFNDPELEKLLRELRELLSSSSSS
# B17: il10ra_site1_normal_mot_HHH_b2_00984_000000042_0001_1_20_H_._HHH_b2_02963_0001_0000400015_0000001_0 (protein)
# chain: SSSSSDEEEVRRLLEEAEELFENGNPEEAVELLLEAVQIAQENSNPELLQEVWEVIKELFSSSSS
# B18: il10ra_site1_sap_18_mot_HHH_b1_04015_af2_000000074_0001_1_17_H_._HHH_b2_01387_0001_0000100001_0000002_0_0001 (protein)
# chain: SSSSSTEEVMELIREAAELDQQGNEEEAREVLEEAQKLAEELNNWALRWAIEHLERVLNSSSSSS
# Target: il10ra, Q13651
# Test: yeast display titration
row,Binder,apparent Kd
1,B1,inactive: no binding seen
2,B2,inactive: no binding seen
3,B3,inactive: no binding seen
4,B4,inactive: no binding seen
5,B5,inactive: no binding seen
6,B6,inactive: no binding seen
7,B7,inactive: no binding seen
8,B8,inactive: no binding seen
9,B9,inactive: no binding seen
10,B10,inactive: no binding seen
11,B11,inactive: no binding seen
12,B12,inactive: no binding seen
13,B13,inactive: no binding seen
14,B14,inactive: no binding seen
15,B15,inactive: no binding seen
16,B16,inactive: no binding seen
17,B17,inactive: no binding seen
18,B18,inactive: no binding seen

# Reprinted, nos. 14–15
row,Binder,apparent Kd
14,B14,inactive: no binding seen
15,B15,inactive: no binding seen
